{"source": "paper PMC8670036", "binders": {"B1": {"name": "Flag-tagged Tas (protein, UniProt P14353 1-300)", "chain": "MDSYEKEESVASTSGIQDLQTLSELVGPENAGEGELTIAEEPEENPRRPRRYTKREVKCVSYHAYKEIEDKHPQHIKLQDWIPTPEEMSKSLCKRLILCGLYSAEKASEILRMPFTVSWEQSDTDPDCFIVSYTCIFCDAVIHDPMPIRWDPEVGIWVKYKPLRGIVGSAVFIMHKHQRNCSLVKPSTSCSEGPKPRPRHDPVLRCDMFEKHHKPRQKRPRRRSIDNESCASSSDTMANEPGSLCTNPLWNPGPLLSGLLEESSNLPNLEVHMSGGPFWEEVYGDSILGPPSGSGEHSVL"}}, "key": {"[1]": {"molecular_target": "HA-Trim28-△PB", "experiment": "co-IP"}, "[2]": {"molecular_target": "HA-Trim28-△RBCC", "experiment": "co-IP"}}, "note": "These are yes or no findings as the source states them, for the method shown. Binding seen in cells or lysates may run through a third protein. For some assays here: Binding calls can cover weak binding; strength is not graded here. Where a sequence is shown, tags or fusion partners need not be part of it."}
{"binder": "B1", "values": [{"measurement": "binding", "setting": "[1]", "value": "binds"}, {"measurement": "binding", "setting": "[2]", "value": "no binding"}]}
